Results reported in article doi:10.1101/2023.08.13.546412 (bioRxiv, 2023).
Results are given in words; binding and its absence hold for the method and conditions named. In cells and extracts the contact can be indirect. Some results given as binding are weak or reduced against the parent protein; the word gives no strength. Sequences can lack the tags named with a protein.

Protein sequences, listed by entry. Tags and fused reporters are not part of them.
UniProt Q39012: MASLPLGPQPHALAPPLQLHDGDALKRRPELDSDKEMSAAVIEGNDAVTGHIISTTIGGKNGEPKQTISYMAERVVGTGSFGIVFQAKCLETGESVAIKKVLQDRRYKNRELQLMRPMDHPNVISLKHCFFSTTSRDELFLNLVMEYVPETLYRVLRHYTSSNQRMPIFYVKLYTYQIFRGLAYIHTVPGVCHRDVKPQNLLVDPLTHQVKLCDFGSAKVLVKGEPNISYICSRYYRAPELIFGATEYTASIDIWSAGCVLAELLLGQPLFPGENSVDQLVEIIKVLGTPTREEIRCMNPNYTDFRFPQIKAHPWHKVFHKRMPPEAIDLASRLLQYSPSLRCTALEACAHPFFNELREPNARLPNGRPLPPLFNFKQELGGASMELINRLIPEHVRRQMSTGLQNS

T1: WOX5-YFPN (WUSCHEL-RELATED HOMEOBOX 5 fused to the N-terminal half of YFP) (Arabidopsis thaliana) (UniProt Q8H1D2)
T1 sequence: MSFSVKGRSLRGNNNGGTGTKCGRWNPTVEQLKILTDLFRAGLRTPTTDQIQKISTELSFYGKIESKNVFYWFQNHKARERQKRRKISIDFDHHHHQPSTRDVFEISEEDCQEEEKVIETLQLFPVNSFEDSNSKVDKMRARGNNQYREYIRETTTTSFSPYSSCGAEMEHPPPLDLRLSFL

B1: AtSK23-YFPC (enzyme, UniProt Q39010 1-412)
chain: MTSIPLGPPQPPSLAPQPPHLHGGDSLKRRPDIDNDKEMSAAVIEGNDAVTGHIISTTIGGKNGEPKQTISYMAERVVGTGSFGIVFQAKCLETGESVAIKKVLQDRRYKNRELQLMRLMDHPNVVSLKHCFFSTTTRDELFLNLVMEYVPETLYRVLKHYTSSNQRMPIFYVKLYTYQIFRGLAYIHTAPGVCHRDVKPQNLLVDPLTHQCKLCDFGSAKVLVKGEANISYICSRYYRAPELIFGATEYTSSIDIWSAGCVLAELLLGQPLFPGENSVDQLVEIIKVLGTPTREEIRCMNPNYTDFRFPQIKAHPWHKVFHKRMPPEAIDLASRLLQYSPSLRCTALEACAHPFFNELREPNARLPNGRPLPPLFNFKQELSGASPELINRLIPEHVRRQMNGGFPFQAGP

Target: T1, WOX5-YFPN (WUSCHEL-RELATED HOMEOBOX 5 fused to the N-terminal half of YFP) (Arabidopsis thaliana)
Experiment: split reporter

Row | Molecule | binding
1 | AtSK22-YFPC (from UniProt Q39012 1-407) (enzyme) | binds
2 | B1 | binds
